# Measured values from the supplement of paper PMC6411743.
# Protein sequences, listed by entry. Tags and fused reporters are not part of them. Lines headed by an entry give the natural chain unless they say otherwise; changes in a name come on top.
# UniProt Q8N8R7: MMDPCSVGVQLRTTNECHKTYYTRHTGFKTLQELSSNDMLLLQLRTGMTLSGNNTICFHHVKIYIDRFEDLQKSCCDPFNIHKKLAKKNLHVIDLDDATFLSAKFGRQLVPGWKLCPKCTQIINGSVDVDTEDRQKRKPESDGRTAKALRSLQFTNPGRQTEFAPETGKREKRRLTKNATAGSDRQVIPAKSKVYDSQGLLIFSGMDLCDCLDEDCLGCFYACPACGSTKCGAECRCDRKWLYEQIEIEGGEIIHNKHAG
# UniProt Q8NC44: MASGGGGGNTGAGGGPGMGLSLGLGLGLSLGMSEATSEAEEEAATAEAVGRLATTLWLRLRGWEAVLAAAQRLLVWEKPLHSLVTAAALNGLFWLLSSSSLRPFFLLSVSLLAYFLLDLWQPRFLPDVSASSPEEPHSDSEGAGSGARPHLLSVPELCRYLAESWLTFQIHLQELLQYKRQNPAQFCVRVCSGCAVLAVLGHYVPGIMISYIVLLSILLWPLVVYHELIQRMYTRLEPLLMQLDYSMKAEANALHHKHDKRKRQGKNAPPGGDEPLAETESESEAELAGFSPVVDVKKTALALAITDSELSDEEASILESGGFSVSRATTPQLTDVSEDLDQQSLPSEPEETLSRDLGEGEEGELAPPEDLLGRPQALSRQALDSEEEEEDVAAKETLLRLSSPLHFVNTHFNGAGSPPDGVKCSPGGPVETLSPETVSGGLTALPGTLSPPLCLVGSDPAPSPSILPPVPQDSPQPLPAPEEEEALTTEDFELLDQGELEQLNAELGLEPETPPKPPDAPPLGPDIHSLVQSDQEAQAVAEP
# UniProt Q8N0Z6: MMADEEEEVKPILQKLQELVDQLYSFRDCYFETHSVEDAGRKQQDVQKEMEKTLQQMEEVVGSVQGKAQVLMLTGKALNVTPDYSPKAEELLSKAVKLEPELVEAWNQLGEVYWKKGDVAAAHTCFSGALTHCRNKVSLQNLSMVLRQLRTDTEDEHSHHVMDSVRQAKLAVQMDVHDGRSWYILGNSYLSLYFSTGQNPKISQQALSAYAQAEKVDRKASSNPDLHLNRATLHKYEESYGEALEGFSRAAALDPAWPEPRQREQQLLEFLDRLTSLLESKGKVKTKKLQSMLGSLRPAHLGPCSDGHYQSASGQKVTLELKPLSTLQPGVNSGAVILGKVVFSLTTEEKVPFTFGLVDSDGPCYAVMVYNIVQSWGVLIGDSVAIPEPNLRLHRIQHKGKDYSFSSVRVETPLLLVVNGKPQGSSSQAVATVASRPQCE
# UniProt Q8N573: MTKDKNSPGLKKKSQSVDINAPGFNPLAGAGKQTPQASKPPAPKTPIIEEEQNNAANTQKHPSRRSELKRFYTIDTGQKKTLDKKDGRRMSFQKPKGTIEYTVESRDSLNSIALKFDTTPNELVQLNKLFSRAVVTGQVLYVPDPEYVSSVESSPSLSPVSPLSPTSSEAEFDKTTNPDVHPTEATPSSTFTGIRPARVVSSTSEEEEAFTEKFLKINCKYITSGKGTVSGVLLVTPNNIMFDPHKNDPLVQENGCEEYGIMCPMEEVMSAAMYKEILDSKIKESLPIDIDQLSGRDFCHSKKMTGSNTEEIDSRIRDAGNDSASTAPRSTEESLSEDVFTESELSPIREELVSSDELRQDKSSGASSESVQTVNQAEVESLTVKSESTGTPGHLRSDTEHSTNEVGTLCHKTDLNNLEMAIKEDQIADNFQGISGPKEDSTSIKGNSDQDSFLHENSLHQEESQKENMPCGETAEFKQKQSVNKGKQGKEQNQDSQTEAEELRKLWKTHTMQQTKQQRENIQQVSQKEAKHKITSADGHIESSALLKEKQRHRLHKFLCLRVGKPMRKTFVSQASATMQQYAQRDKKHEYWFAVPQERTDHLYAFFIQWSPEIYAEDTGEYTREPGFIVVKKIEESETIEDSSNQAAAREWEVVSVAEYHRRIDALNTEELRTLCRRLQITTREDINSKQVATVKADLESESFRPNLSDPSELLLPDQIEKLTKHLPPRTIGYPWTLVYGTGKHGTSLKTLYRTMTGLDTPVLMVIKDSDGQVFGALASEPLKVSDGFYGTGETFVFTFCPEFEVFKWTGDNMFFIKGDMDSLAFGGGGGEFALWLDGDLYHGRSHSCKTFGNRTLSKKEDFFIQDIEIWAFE
# UniProt Q8NA72: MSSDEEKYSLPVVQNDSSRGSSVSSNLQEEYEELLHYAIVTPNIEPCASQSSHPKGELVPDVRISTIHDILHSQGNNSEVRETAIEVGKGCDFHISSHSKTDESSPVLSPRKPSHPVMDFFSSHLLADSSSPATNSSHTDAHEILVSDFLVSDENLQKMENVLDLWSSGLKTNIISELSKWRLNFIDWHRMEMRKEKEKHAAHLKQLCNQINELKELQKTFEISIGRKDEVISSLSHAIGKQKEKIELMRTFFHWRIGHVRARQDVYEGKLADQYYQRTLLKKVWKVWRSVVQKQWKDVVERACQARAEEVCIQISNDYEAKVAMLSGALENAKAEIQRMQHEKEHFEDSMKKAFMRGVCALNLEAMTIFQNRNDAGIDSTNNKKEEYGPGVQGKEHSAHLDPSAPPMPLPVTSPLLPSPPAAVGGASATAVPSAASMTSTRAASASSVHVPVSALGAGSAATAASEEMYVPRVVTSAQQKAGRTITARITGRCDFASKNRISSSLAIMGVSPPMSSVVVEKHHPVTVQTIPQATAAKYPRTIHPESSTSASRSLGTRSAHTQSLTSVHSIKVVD
# UniProt Q8IX18: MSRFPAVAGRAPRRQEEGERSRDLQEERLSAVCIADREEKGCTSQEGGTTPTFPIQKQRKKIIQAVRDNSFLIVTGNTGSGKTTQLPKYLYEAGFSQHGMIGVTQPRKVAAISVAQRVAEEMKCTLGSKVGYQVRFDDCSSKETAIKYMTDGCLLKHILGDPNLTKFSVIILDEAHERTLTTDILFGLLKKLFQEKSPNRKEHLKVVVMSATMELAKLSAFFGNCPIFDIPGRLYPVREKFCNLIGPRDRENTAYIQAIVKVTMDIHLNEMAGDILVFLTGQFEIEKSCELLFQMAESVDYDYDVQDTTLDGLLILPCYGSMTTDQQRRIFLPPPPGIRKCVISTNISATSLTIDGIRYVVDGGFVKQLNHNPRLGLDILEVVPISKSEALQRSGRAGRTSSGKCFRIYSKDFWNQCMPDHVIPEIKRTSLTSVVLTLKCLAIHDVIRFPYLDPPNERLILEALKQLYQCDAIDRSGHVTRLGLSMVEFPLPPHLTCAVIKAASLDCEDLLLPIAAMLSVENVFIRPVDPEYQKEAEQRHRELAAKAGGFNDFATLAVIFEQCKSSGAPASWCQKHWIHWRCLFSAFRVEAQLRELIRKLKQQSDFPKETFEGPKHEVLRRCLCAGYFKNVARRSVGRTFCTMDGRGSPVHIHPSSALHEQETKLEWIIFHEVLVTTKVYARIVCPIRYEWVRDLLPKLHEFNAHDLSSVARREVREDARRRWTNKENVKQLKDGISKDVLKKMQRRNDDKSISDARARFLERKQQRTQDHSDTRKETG
# UniProt Q8NFH4: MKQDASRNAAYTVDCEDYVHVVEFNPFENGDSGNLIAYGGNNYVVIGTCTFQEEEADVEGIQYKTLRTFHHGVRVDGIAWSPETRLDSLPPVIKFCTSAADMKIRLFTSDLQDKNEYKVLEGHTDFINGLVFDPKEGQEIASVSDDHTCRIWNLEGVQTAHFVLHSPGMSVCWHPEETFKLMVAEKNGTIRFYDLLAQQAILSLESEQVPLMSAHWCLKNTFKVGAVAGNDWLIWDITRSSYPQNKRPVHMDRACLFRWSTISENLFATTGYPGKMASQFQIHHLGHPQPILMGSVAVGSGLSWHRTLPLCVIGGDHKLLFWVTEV
# UniProt Q8N2K0: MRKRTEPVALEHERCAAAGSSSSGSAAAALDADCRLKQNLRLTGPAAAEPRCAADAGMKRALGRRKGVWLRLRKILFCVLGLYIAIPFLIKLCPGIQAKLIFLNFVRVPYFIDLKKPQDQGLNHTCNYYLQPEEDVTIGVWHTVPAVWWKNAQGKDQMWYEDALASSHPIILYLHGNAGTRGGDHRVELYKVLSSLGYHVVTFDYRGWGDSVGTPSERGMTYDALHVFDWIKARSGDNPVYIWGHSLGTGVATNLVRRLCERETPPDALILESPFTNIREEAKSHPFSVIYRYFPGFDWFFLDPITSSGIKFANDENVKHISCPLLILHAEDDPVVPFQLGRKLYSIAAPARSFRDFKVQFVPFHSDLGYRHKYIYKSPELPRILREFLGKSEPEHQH
# UniProt Q8TAV0: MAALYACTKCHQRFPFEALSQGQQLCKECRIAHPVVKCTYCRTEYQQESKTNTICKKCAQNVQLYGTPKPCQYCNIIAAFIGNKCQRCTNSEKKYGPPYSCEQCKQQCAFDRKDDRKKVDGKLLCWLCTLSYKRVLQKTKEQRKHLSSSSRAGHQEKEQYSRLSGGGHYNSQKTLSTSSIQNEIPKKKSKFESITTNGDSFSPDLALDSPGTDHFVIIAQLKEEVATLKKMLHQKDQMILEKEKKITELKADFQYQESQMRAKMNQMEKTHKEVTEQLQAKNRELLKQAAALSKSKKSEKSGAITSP
# UniProt Q8N5F7: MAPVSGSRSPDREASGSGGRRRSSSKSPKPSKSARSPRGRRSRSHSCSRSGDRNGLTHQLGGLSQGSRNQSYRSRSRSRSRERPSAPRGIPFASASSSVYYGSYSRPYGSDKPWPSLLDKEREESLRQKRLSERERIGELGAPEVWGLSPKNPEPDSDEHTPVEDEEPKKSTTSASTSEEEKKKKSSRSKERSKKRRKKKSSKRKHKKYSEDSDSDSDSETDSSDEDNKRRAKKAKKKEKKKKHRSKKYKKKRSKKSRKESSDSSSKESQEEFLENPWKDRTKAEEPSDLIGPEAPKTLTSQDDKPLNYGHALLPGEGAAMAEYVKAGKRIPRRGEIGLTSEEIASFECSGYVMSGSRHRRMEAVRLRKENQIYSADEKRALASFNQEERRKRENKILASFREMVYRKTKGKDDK
# UniProt Q8N5L8: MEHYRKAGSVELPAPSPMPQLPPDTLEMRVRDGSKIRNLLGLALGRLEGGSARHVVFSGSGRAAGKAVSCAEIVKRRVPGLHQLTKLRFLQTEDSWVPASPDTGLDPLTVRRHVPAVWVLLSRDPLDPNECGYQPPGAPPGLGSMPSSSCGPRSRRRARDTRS
# UniProt Q8NCC3: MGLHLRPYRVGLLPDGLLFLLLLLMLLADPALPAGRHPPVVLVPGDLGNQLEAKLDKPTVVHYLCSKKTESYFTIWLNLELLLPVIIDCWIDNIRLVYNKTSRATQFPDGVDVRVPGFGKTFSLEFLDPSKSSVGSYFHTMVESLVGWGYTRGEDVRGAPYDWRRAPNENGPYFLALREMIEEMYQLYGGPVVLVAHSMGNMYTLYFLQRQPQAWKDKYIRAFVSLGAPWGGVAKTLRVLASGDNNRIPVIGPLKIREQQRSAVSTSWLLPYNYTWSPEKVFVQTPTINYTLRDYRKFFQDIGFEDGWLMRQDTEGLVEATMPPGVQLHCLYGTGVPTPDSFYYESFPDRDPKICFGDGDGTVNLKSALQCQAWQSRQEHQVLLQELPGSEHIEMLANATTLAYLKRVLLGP
# UniProt Q8N5M4: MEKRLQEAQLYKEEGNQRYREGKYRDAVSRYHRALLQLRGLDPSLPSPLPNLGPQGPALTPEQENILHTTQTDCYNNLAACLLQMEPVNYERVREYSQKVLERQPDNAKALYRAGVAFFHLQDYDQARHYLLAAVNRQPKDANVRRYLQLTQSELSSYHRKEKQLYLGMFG
# UniProt Q8N163, whole entry: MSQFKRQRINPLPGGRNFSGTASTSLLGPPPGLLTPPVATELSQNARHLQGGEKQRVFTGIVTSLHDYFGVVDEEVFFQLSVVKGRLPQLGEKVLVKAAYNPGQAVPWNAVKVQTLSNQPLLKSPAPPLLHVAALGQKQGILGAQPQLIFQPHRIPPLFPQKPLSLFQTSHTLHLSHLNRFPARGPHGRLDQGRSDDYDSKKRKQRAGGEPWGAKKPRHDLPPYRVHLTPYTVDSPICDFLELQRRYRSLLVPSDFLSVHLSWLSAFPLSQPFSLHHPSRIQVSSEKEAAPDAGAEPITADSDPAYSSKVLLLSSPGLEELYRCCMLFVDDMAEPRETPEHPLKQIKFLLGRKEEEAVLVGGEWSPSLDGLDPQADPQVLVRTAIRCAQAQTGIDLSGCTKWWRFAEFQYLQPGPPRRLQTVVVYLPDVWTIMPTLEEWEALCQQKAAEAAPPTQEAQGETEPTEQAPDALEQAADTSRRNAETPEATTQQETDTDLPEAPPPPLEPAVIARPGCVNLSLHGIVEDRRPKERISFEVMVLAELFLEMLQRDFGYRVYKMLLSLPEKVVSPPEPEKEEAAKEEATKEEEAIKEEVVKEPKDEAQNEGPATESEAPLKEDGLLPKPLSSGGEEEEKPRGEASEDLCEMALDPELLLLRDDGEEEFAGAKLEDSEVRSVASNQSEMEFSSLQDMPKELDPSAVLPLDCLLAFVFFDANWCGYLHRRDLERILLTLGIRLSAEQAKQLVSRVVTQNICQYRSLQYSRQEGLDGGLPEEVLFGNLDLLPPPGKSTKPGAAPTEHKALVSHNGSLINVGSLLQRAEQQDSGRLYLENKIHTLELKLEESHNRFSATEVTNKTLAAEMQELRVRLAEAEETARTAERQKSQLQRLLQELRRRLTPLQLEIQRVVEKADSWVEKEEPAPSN
# ± gives the standard deviation of the averaged measurements. The entries are a selection whose mix differs from that of the whole data set. Most entries show no effect beyond the scatter of the controls.
# Compound: Nc1ncnc2c1ncn2[C@@H]1O[C@H](COP(=O)(O)OP(=O)(O)OP(=O)(O)O)[C@@H](O)[C@H]1O [adenosine triphosphate]
# Assay: NP40-soluble protein abundance relative to vehicle (solubility fold change) (ratio); higher = more soluble protein in presence of ATP
# How it was run: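 Jurkat crude lysate prepared with a Dounce homogeniser was treated at eight concentrations spanning 0.1 to 10 mM, 10 min at room temperature then 3 min at 37 °C. Solubilisation with 0.8% NP40 and benzonase and ultracentrifugation preceded TMT labelling of the supernatant for LC-MS/MS. Fold change against the detergent-processed vehicle was determined per replicate from vsn-normalised intensities, across three independent experiments.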
Target,NP40-soluble protein abundance (concentration: 0.1mM),NP40-soluble protein abundance (concentration: 0.5mM)
UniProt Q8N108 and related entries,0.964 ± 0.018,0.976 ± 0.032
UniProt Q8IZC7 and related entries,0.934 ± 0.14,0.898 ± 0.29
UniProt Q8N2Z9,0.873 ± 0.12,0.934 ± 0.14
UniProt Q8N8R7,0.965 ± 0.079,0.968 ± 0.048
UniProt Q8NG31 and related entries,1.01 ± 0.012,1.03 ± 0.051
ARL6IP6 (UniProt Q8N6S5),1.01 ± 0.052,1.02 ± 0.042
UniProt Q8NC44,0.985 ± 0.06,0.966 ± 0.084
UniProt Q8IYU2 and related entries,1.02 ± 0.011,1.02 ± 0.027
PELP1 (UniProt Q8IZL8),0.993 ± 0.03,0.896 ± 0.049
UniProt Q8IXI2-2|Q8IXI2-3,1.044 ± 0.0017,1.004 ± 0.0017
RBM15B (UniProt Q8NDT2),1.06 ± 0.022,1.16 ± 0.07
TTC5 (UniProt Q8N0Z6),0.982 ± 0.024,0.954 ± 0.042
UniProt Q8N5A5-2|Q8N5A5 and related entries,1.02 ± 0.1,1.09 ± 0.12
UniProt Q8N573 and related entries,1.04 ± 0.032,1.01 ± 0.022
UniProt Q8N983-4|B1AL05 and related entries,0.937 ± 0.29,0.949 ± 0.32
UniProt Q8N0Z3,1.02 ± 0.039,0.926 ± 0.033
UniProt Q8NA72 and related entries,0.986 ± 0.2,1.01 ± 0.082
DHX40 (UniProt Q8IX18),1.06 ± 0.013,1.03 ± 0.024
UniProt Q8IXQ6-2|Q8IXQ6-3,1.07 ± 0.039,1.08 ± 0.017
ANKRD13A (UniProt Q8IZ07),1.08 ± 0.14,1.02 ± 0.043

# Copied from the list:
# Entry for UniProt Q8N2Z9 under NP40-soluble protein abundance (concentration: 0.1mM): 0.873 ± 0.12
# Entry for UniProt Q8N0Z3 under NP40-soluble protein abundance (concentration: 0.1mM): 1.02 ± 0.039

# The results go on:

Target,NP40-soluble protein abundance (concentration: 0.1mM),NP40-soluble protein abundance (concentration: 0.5mM)
NUP37 (UniProt Q8NFH4),1.02 ± 0.052,0.992 ± 0.062
HSCB (UniProt Q8IWL3),1 ± 0.2,0.98 ± 0.22
UniProt Q8N2K0 and related entries,1.06 ± 0.047,1.04 ± 0.058
UniProt Q8N0X7,1.02 ± 0.026,1.01 ± 0.033
FBXO22 (UniProt Q8NEZ5),1.13 ± 0.095,1.05 ± 0.069
TTC13 (UniProt Q8NBP0),1.17 ± 0.12,1.12 ± 0.087
UniProt Q8NEB9,1.03 ± 0.077,1.05 ± 0.051
FAM76A (UniProt Q8TAV0),0.973 ± 0.023,0.991 ± 0.042
NKAP (UniProt Q8N5F7),0.987 ± 0.035,1.03 ± 0.067
LEMD2 (UniProt Q8NC56),1.08 ± 0.051,1.37 ± 0.054
UniProt Q8N5L8,0.945 ± 0.049,0.912 ± 0.072
UniProt Q8NBZ7 and related entries,1.01 ± 0.035,0.991 ± 0.07
ALDH16A1 (UniProt Q8IZ83),1.01 ± 0.062,1.02 ± 0.079
PLA2G15 (UniProt Q8NCC3),0.971 ± 0.038,0.896 ± 0.059
UniProt Q8IZM8,0.993 ± 0.011,0.99 ± 0.029
PDZD8 (UniProt Q8NEN9),1.03 ± 0.011,1.01 ± 0.042
TTC9C (UniProt Q8N5M4),0.914 ± 0.053,0.92 ± 0.11
UniProt Q8N8E3 and related entries,1.05 ± 0.067,1.09 ± 0.043
UniProt Q8N163,0.939 ± 0.071,0.966 ± 0.094
LZTR1 (UniProt Q8N653),1.02 ± 0.04,0.931 ± 0.022
